Laboratory results: the supplement of paper PMC8256030
“And” between values parts separate entries of the source, which are not always exact repeats. Equal values may be shown once. The list shows a part of the results. Single values are uncertain here, since repeats match poorly.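 HEK293T cells were given each compound shortly before transfection with a reporter in which red mCherry is followed by the SARS-CoV-2 frameshift element and then GFP in the −1 frame, so GFP appears only after frameshifting.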

The compounds below were run on SARS-CoV-2 -1 PRF reporter mCherry-FSE-GFP(-1) (assay: mCherry (red) intensity as percent of control; higher = higher upstream reporter expression). Conditions: 10 µM; 24 h; HEK293T.

SMILES | mCherry
c1cnc2cc3c(cc2n1)[C@@H]1CNC[C@H]3C1 [varenicline] | 105%
Cc1nc2ccccn2c(=O)c1CCN1CCC(C(=O)c2ccc(F)cc2)CC1 [pirenperone] | 101%
O=C1Cc2cc(CCN3CCN(c4nsc5ccccc45)CC3)c(Cl)cc2N1 | 114%
Cc1[nH]c(C)c(Cl)c(=O)c1Cl | 110%
CSc1ccc(OCc2ncc([N+](=O)[O-])n2C)cc1 [fexinidazole] | 110%
CC(=O)Nc1c(I)c(C(=O)N[C@H]2C(O)O[C@H](CO)[C@@H](O)[C@@H]2O)c(I)c(N(C)C(C)=O)c1I (some centres undefined) [Amipaque] | 108% and 109%
CC[C@@]1(O)C(=O)OCc2c1cc1n(c2=O)Cc2cc3c([N+](=O)[O-])cccc3nc2-1 [rubitecan] | 173%
CCCCC(CC)COc1ccc(-c2nc(-c3ccc(OC)cc3)nc(-c3ccc(OCC(CC)CCCC)cc3O)n2)c(O)c1 (centres undefined) | 106%
COc1cc(N)c(Cl)cc1C(=O)NC1CCN(Cc2ccccc2)CC1 [clebopride] | 94.3%
C1CCC(C(CC2CCCCN2)C2CCCCC2)CC1 (centres undefined) [perhexiline] | 130%
Nc1nc(=O)[nH]cc1F | 109%
COc1ccc(-c2cc(=O)c3c(O)cc(O[C@@H]4O[C@H](CO[C@@H]5O[C@@H](C)[C@H](O)[C@@H](O)[C@H]5O)[C@@H](O)[C@H](O)[C@H]4O)cc3o2)cc1O [diosmin] | 101% and 84.6%
O=C1O[C@H]([C@@H](O)CO)C(O)=C1O | 96.1%
O=C(O)c1ccccc1OP(=O)(O)O [fosfosal] | 115%
Clc1cc(-c2ccccc2)ccc1OCCCN1CCOCC1 [chlordimorine] | 87.5%
CCCCc1nc(Cl)c(CO)n1Cc1ccc(-c2ccccc2-c2nnn[nH]2)cc1 [Losartan potassium] | 240%
CC1(CN2CCC(n3c(=O)[nH]c4ccccc43)CC2)OCc2ccccc2-n2cccc21 (centres undefined) [zaldaride] | 71.8%

Random excerpt: 3 records from the list
SMILES | mCherry
CC[C@@]1(O)C(=O)OCc2c1cc1n(c2=O)Cc2cc3c([N+](=O)[O-])cccc3nc2-1 [rubitecan] | 173%
COc1cc(N)c(Cl)cc1C(=O)NC1CCN(Cc2ccccc2)CC1 [clebopride] | 94.3%
CCCCC(CC)COc1ccc(-c2nc(-c3ccc(OC)cc3)nc(-c3ccc(OCC(CC)CCCC)cc3O)n2)c(O)c1 (centres undefined) | 106%

(further entries)

SMILES | mCherry
CCCc1c(SCCCOc2ccc(C(C)=O)c(OCCCC(=O)O)c2CCC)ccc(C(C)=O)c1O [tipelukast] | 94.9%
COCCc1ccccn1 [metyridine] | 82.9%
CO[C@H]1C[C@@H]2CC[C@@H](C)[C@@](O)(O2)C(=O)C(=O)N2CCCC[C@H]2C(=O)O[C@H]([C@H](C)C[C@@H]2CC[C@@H](O)[C@H](OC)C2)CC(=O)[C@H](C)/C=C(\C)[C@@H](O)[C@@H](OC)C(=O)[C@H](C)C[C@H](C)/C=C/C=C/C=C/1C [Sirolimus] | 102%
CCCc1nc(C(C)(C)O)c(C(=O)O)n1Cc1ccc(-c2ccccc2-c2nnn[nH]2)cc1 [olmesartan] | 140% and 128%
Nc1nc2c([nH]1)c(=O)n(CC1CC1)c(=O)n2CC1CC1 [cipamfylline] | 78.2%
C[C@]12CC[C@@H]3c4ccc(O)cc4C[C@@H](CCCCCCCCC[S+]([O-])CCCC(F)(F)C(F)(F)F)[C@H]3[C@@H]1CC[C@@H]2O (some centres undefined) [Faslodex] | 97.6%
NC(=O)C1=CN([C@@H]2O[C@H](COP(=O)(O)OP(=O)(O)OC[C@H]3O[C@@H](n4cnc5c(N)ncnc54)[C@H](O)[C@@H]3O)[C@@H](O)[C@H]2O)C=CC1 | 113%
OC[C@@H](O)CN1CCN(c2ccccc2)CC1 [levodropropizine] | 93.7%
Cc1ccc(C(=O)N(CCCN)[C@@H](c2nc3cc(Cl)ccc3c(=O)n2Cc2ccccc2)C(C)C)cc1 [ispinesib] | 16.5%
CCN(CCCc1ccccc1)CCCc1ccccc1 | 64.6%
NC[C@H]1CC[C@H](C(=O)O)CC1 [tranexamic acid] | 98.6%
CC1(NC2=NS(=O)(=O)c3sc(Cl)cc3N2)CC1 | 88.7%
CCCCC[C@H](O)/C=C/[C@@H]1[C@H]2C/C(=C/CCCC(=O)O)O[C@H]2C[C@H]1O [Epoprostenol] | 93%
CC(C)CCC[C@@H](C)[C@H]1CC[C@H]2[C@@H]3CC=C4C[C@@H](O)CC[C@]4(C)[C@H]3CC[C@]12C | 141%
CN1CCC(OC(=O)C(Oc2ccc(Cl)cc2)Oc2ccc(Cl)cc2)CC1 [lifibrate] | 79%
C[C@@H]1C[C@H]2[C@@H]3CCC4=CC(=O)C=C[C@]4(C)[C@@]3(Cl)[C@@H](O)C[C@]2(C)[C@@]1(O)C(=O)CCl [mometasone] | 86.2%
O=C1CCc2ccc(OCCCCN3CCN(c4cccc(Cl)c4Cl)CC3)cc2N1 [aripiprazole] | 107% and 115%
